Where two headings read alike, the source gives them in different places. No constants are given. Whether binding was seen depends on the method and setting. In cells and extracts the contact can be indirect. Some entries that bind do so weakly or less than the wild type.
Experiments:
[1] = target: dystrophin (full-length) (mouse (endogenous in heart)) (UniProt P11531); assay: co-IP; IP with the MANEX1011B monoclonal antibody from cardiac lysates of wild-type (dystrophin) and μDYS-mdx^5cv (μDys) mice, western blot of the IPs; controls: MANEX1011B IPs from mdx^5cv lysates and IPs with the MW8 control antibody
[2] = target: dystrophin (full-length) (mouse (endogenous in heart)) (UniProt P11531); assay: as above; remark: listed apart in the source

Sequences of proteins named here, by UniProt entry; tags and fusion partners are left off.
UniProt P11531: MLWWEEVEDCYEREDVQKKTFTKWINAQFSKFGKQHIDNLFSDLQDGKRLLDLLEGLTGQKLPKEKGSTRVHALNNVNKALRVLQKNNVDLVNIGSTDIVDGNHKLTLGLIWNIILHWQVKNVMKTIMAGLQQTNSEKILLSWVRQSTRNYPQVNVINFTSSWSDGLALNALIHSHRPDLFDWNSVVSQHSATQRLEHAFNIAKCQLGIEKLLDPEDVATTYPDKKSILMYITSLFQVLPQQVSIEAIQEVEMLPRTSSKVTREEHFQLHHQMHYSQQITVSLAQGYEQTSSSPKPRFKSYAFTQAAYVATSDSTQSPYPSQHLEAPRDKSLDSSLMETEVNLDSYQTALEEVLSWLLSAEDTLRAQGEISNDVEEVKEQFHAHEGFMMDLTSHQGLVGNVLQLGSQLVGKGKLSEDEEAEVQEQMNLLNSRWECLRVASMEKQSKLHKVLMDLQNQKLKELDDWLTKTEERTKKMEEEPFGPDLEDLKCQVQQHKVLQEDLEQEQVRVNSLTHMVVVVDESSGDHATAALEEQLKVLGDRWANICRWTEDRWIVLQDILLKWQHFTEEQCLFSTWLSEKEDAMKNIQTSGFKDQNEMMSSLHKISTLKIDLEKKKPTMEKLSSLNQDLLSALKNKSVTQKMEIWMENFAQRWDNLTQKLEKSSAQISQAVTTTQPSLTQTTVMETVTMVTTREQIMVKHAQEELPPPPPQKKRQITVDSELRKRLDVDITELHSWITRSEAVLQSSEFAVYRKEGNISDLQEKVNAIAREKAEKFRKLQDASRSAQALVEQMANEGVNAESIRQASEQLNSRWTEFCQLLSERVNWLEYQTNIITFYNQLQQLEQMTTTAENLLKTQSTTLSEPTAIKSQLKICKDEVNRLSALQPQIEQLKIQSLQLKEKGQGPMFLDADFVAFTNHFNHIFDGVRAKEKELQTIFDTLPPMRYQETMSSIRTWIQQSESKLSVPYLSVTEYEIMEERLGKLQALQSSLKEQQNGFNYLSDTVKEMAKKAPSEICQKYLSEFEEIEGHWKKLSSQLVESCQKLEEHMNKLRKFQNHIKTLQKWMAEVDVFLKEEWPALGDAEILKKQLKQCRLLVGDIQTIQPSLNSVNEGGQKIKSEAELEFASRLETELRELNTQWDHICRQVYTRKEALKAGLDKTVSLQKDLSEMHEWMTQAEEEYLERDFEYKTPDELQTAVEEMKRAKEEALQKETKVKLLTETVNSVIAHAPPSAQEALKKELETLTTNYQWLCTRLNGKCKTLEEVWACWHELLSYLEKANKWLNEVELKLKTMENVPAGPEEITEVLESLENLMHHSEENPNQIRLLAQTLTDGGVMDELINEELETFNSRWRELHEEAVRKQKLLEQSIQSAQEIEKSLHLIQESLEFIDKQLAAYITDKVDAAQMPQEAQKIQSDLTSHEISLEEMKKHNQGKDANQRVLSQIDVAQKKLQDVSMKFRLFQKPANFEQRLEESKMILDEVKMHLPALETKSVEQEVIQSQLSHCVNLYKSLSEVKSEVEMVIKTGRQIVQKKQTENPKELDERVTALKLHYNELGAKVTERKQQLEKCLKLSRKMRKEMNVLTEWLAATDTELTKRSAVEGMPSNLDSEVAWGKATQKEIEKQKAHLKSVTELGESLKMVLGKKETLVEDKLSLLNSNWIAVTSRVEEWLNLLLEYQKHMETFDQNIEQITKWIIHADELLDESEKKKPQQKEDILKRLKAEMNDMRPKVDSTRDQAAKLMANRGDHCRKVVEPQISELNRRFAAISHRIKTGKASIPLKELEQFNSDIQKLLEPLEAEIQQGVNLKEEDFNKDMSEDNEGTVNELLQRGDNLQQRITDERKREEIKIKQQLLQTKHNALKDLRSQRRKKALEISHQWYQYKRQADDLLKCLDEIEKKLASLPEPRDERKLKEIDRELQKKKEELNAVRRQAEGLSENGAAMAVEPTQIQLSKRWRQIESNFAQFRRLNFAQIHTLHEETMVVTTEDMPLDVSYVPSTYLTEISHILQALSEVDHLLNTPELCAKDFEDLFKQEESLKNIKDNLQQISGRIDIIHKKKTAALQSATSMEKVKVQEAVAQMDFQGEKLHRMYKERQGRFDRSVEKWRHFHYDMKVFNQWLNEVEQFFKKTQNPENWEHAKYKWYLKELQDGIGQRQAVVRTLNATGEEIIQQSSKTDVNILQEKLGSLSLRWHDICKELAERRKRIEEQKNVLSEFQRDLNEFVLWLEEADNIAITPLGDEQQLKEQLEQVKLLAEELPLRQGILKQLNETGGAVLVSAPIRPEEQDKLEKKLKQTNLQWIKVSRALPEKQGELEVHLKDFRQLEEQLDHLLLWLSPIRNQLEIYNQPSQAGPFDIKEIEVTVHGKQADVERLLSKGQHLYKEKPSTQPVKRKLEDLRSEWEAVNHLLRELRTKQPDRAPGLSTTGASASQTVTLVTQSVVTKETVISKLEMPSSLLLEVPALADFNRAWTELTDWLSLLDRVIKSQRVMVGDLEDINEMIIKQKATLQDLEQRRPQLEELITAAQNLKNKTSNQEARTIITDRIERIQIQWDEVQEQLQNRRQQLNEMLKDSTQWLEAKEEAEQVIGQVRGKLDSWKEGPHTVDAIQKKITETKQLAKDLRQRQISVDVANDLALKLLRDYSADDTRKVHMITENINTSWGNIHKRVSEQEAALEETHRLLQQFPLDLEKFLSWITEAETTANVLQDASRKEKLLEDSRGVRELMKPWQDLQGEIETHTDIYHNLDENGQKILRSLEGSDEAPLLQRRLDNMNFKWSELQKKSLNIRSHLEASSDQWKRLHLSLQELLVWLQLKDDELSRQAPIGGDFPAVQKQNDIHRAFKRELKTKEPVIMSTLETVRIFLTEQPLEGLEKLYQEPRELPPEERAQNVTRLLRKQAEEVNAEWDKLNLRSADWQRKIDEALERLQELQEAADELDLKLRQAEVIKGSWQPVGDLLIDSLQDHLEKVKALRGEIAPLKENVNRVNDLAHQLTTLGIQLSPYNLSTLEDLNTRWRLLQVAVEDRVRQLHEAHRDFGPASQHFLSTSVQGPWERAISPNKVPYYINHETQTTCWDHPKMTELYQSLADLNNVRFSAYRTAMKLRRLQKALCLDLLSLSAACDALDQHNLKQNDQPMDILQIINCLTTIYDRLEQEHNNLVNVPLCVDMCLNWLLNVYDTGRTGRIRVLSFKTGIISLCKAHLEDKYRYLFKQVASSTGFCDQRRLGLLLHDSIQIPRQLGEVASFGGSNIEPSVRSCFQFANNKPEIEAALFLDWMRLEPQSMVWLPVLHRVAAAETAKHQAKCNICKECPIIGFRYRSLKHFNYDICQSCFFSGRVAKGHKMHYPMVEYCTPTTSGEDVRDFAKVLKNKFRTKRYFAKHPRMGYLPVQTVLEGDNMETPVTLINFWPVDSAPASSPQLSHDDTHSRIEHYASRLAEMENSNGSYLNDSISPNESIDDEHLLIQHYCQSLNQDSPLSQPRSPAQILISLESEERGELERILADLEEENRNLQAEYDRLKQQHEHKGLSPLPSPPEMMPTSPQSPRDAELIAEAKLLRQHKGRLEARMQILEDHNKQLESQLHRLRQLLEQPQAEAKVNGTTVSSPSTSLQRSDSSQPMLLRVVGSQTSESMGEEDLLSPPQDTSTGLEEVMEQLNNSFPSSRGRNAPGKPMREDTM

binding [1] | binding [2] | Molecule
– | binds | cavin-1 (full-length) (protein, UniProt O54724 1-392) MEDVTLHIVERPYSGFPDASSEGPEPTQGEARATEEPSGTGSDELIKSDQVNGVLVLSLLDKIIGAVDQIQLTQAQLEERQAEMEGAVQSIQGELSKLGKAHATTSNTVSKLLEKVRKVSVNVKTVRGSLERQAGQIKKLEVNEAELLRRRNFKVMIYQDEVKLPAKLSVSKSLKESEALPEKEGDELGEGERPEDDTAAIELSSDEAVEVEEVIEESRAERIKRSGLRRVDDFKKAFSKEKMEKTKVRTRENLEKTRLKTKENLEKTRHTLEKRMNKLGTRLVPVERREKLKTSRDKLRKSFTPDHVVYARSKTAVYKVPPFTFHVKKIREGEVEVLKATEMVEVGPEDDEVGAERGEATDLLRGSSPDVHTLLEITEESDAVLVDKSDSD
– | binds | cavin-4 (protein, UniProt A2AMM0 1-362) MEHNGSASNAGKIHQNRLSSVTEDEDQDAALTIVTVLDRVASVVDSVQASQKRIEERHREMGNAIKSVQIDLLKLSQSHSNTGYVVNKLFEKTRKVSAHIKDVKARVEKQQVRVTKVETKQEEIMKKNKFRVVIFQEDIPCPASLSVVKDRSLPENQEEAEEVFDPPIELSSDEEYYVEESRSARLRKSGKEHIDHIKKAFSRENMQKTRQTLDKKVSGIRTRIVTPERRERLRQSGERLRQSGERLRQSGERFKKSISSAAPSKEAFKIRSLRKAKDPKAEGQEVDRGMGVDIISGSLALGPIHEFHSDEFSETEKEVTKGGYSPQEGGDPPTPEPLKVTFKPQVRVEDDESLLLELKQSS
– | binds | α1-dystrobrevin (protein, UniProt Q9D2N4 1-746) MIEDSGKRGNTMAERRQLFAEMRAQDLDRIRLSTYRTACKLRFVQKKCNLHLVDIWNVIEALRENALNNLDPNIELNVARLEAVLSTIFYQLNKRMPTTHQIHVEQSISLLLNFLLAAFDPEGHGKISVFAVKMALATLCGGKIMDKLRYIFSMISDSSGVMVYGRYDQFLREVLKLPTAVFEGPSFGYTEQSARSCFSQQKKVTLNGFLDTLMSDPPPQCLVWLPLLHRLANVENVFHPVECSYCHSESMMGFRYRCQQCHNYQLCQDCFWRGHAGGSHSNQHQMKEYTSWKSPAKKLTNALSKSLSCASSREPLHPMFPDQPEKPLNLAHIVPPRPVTSMNDTLFSHSVPSSGSPFITRSSPPKDSEVEQNKMLARAAPAFLKGRGIQYSLNVADRLADEHVLIGLYVNMLRNDPPCMLESSNRLDEEHRLIARYAARLAAESSSSQPTQQRSAPDISFTIDANKQQRQLIAELENKNREILQEIQRLRVEHEQASQPTPEKAQQNPTLLAELRLLRQRKDELEQRMSALQESRRELMVQLEGLMKLLKEEELKQGTQGASSPRSSPSHTISRPIPMPIRSASACPTPTHTPQDSLTGVGGDVQEAFAQSSRRNLRSDLLVAADSITNTMSSLVKELNSEVASETESTVDSEFSRPQFEDLAPSPTSEKAFLAQIHSRKPGYIHGGAASTTHGDMVPEDGDPYTQPEDGNYENESVRQLENELQLEEYLKQKLQDEAYQVSLQG
– | no binding | caveolin-3 (protein, UniProt P51637 1-151) MMTEEHTDLEARIIKDIHCKEIDLVNRDPKNINEDIVKVDFEDVIAEPEGTYSFDGVWKVSFTTFTVSKYWCYRLLSTLLGVPLALLWGFLFACISFCHIWAVVPCIKSYLIEIQCISHIYSLCIRTFCNPLFAALGQVCSNIKVVLRREG

More lines, now with the values behind:

Molecule | binding [1] | binding [2]
Ahnak1 (from UniProt E9Q616 1-5656) | binds | –
β1-syntrophin (protein, UniProt Q99L88 1-537) MAVAAAAVAAPAGGGGARAQRSGLLEVLVRDRWHKVLVNLSEDALVLSCEEGAAAYNGIGAATNGSFCRGSGTGHPVPGVAQAPDSPAGVRTAFTDLPEQVPESISNQKRGVKVLKQELGGLGISIKGGKENKMPILISKIFKGLAADQTQALYVGDAILSVNGADLRDATHDEAVQALKRAGKEVLLEVKYMREATPYVKKGSPVSEIGWETPPPESPRLGGGSAEPLSSQSFSFHRDRKSIPLKMCYVTRNMTLADPENRQLEIHSPDAKHTVILRSKDSATAQAWFSAIHSNAGDLLTRVVADIREQLGKTGIAGSREIRHLGWLAEKVPGESEKQWKPALVVLTEKDLLIYDSMPRRKEAWFSPVHSYPLLATRLVHSGPGKGSPQAGMDLSFATRTGTKQGIETHLFRAEISRDLSHWTRSIVQGCHNSAELTAEITTACTYRNQECRLTIHYDNGFSISTEPQDGAFPKTIIQSPYEKLKMSSDDGIRMLYLDFGGKEGEIQLDLHSCPKPIVFIIHSFLSAKITRLGLVA | – | binds
cavin-2 (protein, UniProt Q63918 1-418) MGEDAAQAEKFQHPNTDMLQEKPSSPSPMPSSTPSPSLNLGSTEEAIRDNSQVNAVTVHTLLDKLVNMLDAVRENQHNMEQRQINLEGSVKGIQNDLTKLSKYQASTSNTVSKLLEKSRKVSAHTRAVRERLERQCVQVKRLENNHAQLLRRNHFKVLIFQEESEIPASVFVKEPVPSAAEGKEELADENKSLEETLHNVDLSSDDELPRDEEALEDSAEEKMEESRAEKIKRSSLKKVDSLKKAFSRQNIEKKMNKLGTKIVSVERREKIKKSLTPNHQKASSGKSSPFKVSPLSFGRKKVREGESSVENETKLEDQMQEDREEGSFTEGLSEASLPSGLMEGSAEDAEKSARRGNNSAVGSNADLTIEEDEEEEPVALQQAQQVRYESGYMLNSEEMEEPSEKQVQPAVLHVDQTA | – | binds
β-dystroglycan (protein, UniProt Q62165 652-893) SIVVEWTNNTLPLEPCPKEQIIGLSRRIADENGKPRPAFSNALEPDFKALSIAVTGSGSCRHLQFIPVAPPSPGSSAAPATEVPDRDPEKSSEDDVYLHTVIPAVVVAAILLIAGIIAMICYRKKRKGKLTLEDQATFIKKGVPIIFADELDDSKPPPSSSMPLILQEEKAPLPPPEYPNQSMPETTPLNQDTVGEYTPLRDEDPNAPPYQPPPPFTAPMEGKGSRPKNMTPYRSPPPYVPP | – | binds
cavin-3 (protein, UniProt Q91VJ2 1-260) MGESALEPGPVPETPAGGPVHAVTVVTLLEKLATMLEALRERQGGLAERQGGLAGSVRRIQSGLGALSRSHDTTSNTLTQLLAKAERVGSHADAAQERAVRRAAQVQRLEANHGLLVARGKLHVLLFKEETEIPARAFQKVPELLGPEDQLVLGPDQPEDEVGESSEEEPVESRAQRLRRTGLQKVQSLKRALSSRKAAQPTPVKPPRVGPVRSSEGPSEGQPAAQPEMESELETALEPEPPQPTKEDPEKPVLQIESAA | – | binds

From publication PMC8255133
